Results taken from PubChem BioAssay AID256 (DTP/NCI, 2004).
The list is a part of this screen's results and no random one: it is rich in T/C values a quarter to a half above the control, in often repeated tests (any T/C) and in doses without a T/C. Other doses and runs of a compound stand elsewhere. T/C gives the treated animals as a percentage of the vehicle group. Some doses have a count of surviving animals in place of a T/C: the source files T/C as zero there, which appears to mark a toxic dose or a test without result, not a measured value. Some doses without a T/C left all or most animals alive at the check, yet need not have been tolerated: survival well below the control is almost never listed, so the zero probably covers shortened survival too. Counts of survivors are from the toxicity check (mostly the fifth day) where no day follows; animals may have died later. Schedule codes are those of the source, read here as Q, the interval in days (D) or hours (H), X, the number of doses. For survival time, this PubChem deposit counts one and a half times the control or more as active, and values a quarter to a half above the control carry no call in these data; other NCI protocols may use other cut-offs. Some T/C values carry the count of animals alive at the toxicity check (mostly the fifth day); where none is given, no animal had died by that day. Some entries were tested several times; the values are given in rising order. Signs of the kind (2×) give the number of equal values in this list.

Test system: CD2F1 mice, L1210 leukemia ip, survival T/C
Experiment: NCI In Vivo Anticancer Drug Screen. Data for tumor model L1210 Leukemia (intraperitoneal) in CD2F1 (CDF1) mice
Details: T/C endpoint: median survival time, higher T/C = longer survival
Procedure, shortened: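 Mice carrying a transplanted tumor received test compound or vehicle alone. The value is the measurement in the treated group divided by that in the vehicle-treated control group.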

COc1cccc2c1C(=O)c1c(O)c3c(c(O)c1C2=O)C[C@@](O)(C(=O)CO)C[C@@H]3OC1CC(N)C(O)C(C)O1 (stereo partly drawn)
T/C (dose: 2.0 mg/kg/injection, schedule: Q01DX005 (iv), vehicle: water): 125 % of control
T/C (dose: 2.0 mg/kg/injection, schedule: Q01DX009 (ip), vehicle: saline, evaluated on day 5): 130 and 168 % of control [4 of 6 alive]
T/C (dose: 2.0 mg/kg/injection, schedule: Q01DX009 (ip), vehicle: saline, evaluated on day 30): 156 and 200 % of control
T/C (dose: 2.0 mg/kg/injection, schedule: Q04DX003 (ip), vehicle: saline): 143 % of control
T/C (dose: 2.0 mg/kg/injection, schedule: Q04DX003 (ip), vehicle: water): 134 % of control
T/C (dose: 2.4 mg/kg/injection, schedule: Q01DX001 (ip), vehicle: saline): 125 and 139 % of control
T/C (dose: 2.5 mg/kg/injection, schedule: Q01DX001 (ip), vehicle: saline, evaluated on day 5): 143 % of control
T/C (dose: 2.5 mg/kg/injection, schedule: Q01DX001 (ip), vehicle: saline, evaluated on day 45): 138 % of control
T/C (dose: 3.0 mg/kg/injection, schedule: Q04DX003 (ip), vehicle: water, evaluated on day 5): 131 % of control
T/C (dose: 3.0 mg/kg/injection, schedule: Q04DX003 (ip), vehicle: water, evaluated on day 61): 131 % of control
T/C (dose: 3.5 mg/kg/injection, schedule: Q01DX001 (ip), vehicle: saline): 134 % of control
T/C (dose: 3.6 mg/kg/injection, schedule: Q01DX001 (ip), vehicle: saline): 129 % of control
T/C (dose: 4.0 mg/kg/injection, schedule: Q01DX001 (ip), vehicle: saline, evaluated on day 6): 104, 107, 117, 128 (2×), 131 % of control
T/C (dose: 4.0 mg/kg/injection, schedule: Q01DX001 (ip), vehicle: saline, evaluated on day 11): 104, 107, 117, 128 (2×), 131 % of control
T/C (dose: 4.0 mg/kg/injection, schedule: Q01DX001 (ip), vehicle: water, evaluated on day 5): 141 % of control
T/C (dose: 4.0 mg/kg/injection, schedule: Q01DX001 (ip), vehicle: water, evaluated on day 33): 141 % of control
T/C (dose: 4.0 mg/kg/injection, schedule: Q01DX005 (ip), vehicle: water): 137 % of control
T/C (dose: 4.0 mg/kg/injection, schedule: Q01DX005 (iv), vehicle: water): 137 % of control
T/C (dose: 4.0 mg/kg/injection, schedule: Q01DX009 (ip), vehicle: saline, evaluated on day 5): 95 and 101 % of control
T/C (dose: 4.0 mg/kg/injection, schedule: Q01DX009 (ip), vehicle: saline, evaluated on day 30): 121 and 147 % of control
T/C (dose: 4.0 mg/kg/injection, schedule: Q04DX003 (ip), vehicle: water): 146 % of control
T/C (dose: 5.8 mg/kg/injection, schedule: Q01DX001 (ip), vehicle: saline, evaluated on day 5): 144 % of control
T/C (dose: 5.8 mg/kg/injection, schedule: Q01DX001 (ip), vehicle: saline, evaluated on day 6): 147 % of control
T/C (dose: 6.0 mg/kg/injection, schedule: Q01DX001 (ip), vehicle: saline): 131 % of control
T/C (dose: 8.0 mg/kg/injection, schedule: Q01DX001 (ip), vehicle: saline, evaluated on day 5): 110 % of control
T/C (dose: 8.0 mg/kg/injection, schedule: Q01DX001 (ip), vehicle: saline, evaluated on day 6): 106, 111, 122, 130 (2×), 139 % of control
T/C (dose: 8.0 mg/kg/injection, schedule: Q01DX001 (ip), vehicle: saline, evaluated on day 11): 106, 111, 122, 130 (2×), 139 % of control
T/C (dose: 8.0 mg/kg/injection, schedule: Q01DX001 (ip), vehicle: water, evaluated on day 5): 141 % of control
T/C (dose: 8.0 mg/kg/injection, schedule: Q01DX001 (ip), vehicle: water, evaluated on day 33): 141 % of control
T/C (dose: 8.0 mg/kg/injection, schedule: Q01DX001 (iv), vehicle: water, evaluated on day 5): 140 % of control
T/C (dose: 8.0 mg/kg/injection, schedule: Q01DX001 (iv), vehicle: water, evaluated on day 33): 140 % of control
T/C (dose: 10.0 mg/kg/injection, schedule: Q01DX001 (ip), vehicle: saline, evaluated on day 5): 129, 179, 183 % of control
T/C (dose: 10.0 mg/kg/injection, schedule: Q01DX001 (ip), vehicle: saline, evaluated on day 45): 172 % of control
T/C (dose: 10.0 mg/kg/injection, schedule: Q04DX003 (ip), vehicle: saline): 131 % of control
survivor count (dose: 14.0 mg/kg/injection, schedule: Q04DX003 (ip), vehicle: water): 8 of 8
T/C (dose: 16.0 mg/kg/injection, schedule: Q01DX001 (ip), vehicle: saline, evaluated on day 5): 172 % of control
T/C (dose: 16.0 mg/kg/injection, schedule: Q01DX001 (ip), vehicle: saline, evaluated on day 6): 85 [4 of 5 alive], 114, 121, 131, 141, 149, 160 % of control
T/C (dose: 16.0 mg/kg/injection, schedule: Q01DX001 (ip), vehicle: saline, evaluated on day 11): 114, 121, 131, 141, 149, 160 % of control
survivor count (dose: 16.0 mg/kg/injection, schedule: Q01DX001 (ip), vehicle: water): 6 of 8
survivor count (dose: 16.0 mg/kg/injection, schedule: Q01DX009 (ip), vehicle: saline): 6 of 6
survivor count (dose: 20.0 mg/kg/injection, schedule: Q01DX001 (ip), vehicle: saline): 9 of 10
survivor count (dose: 32.0 mg/kg/injection, schedule: Q01DX001 (iv), vehicle: water): 5 of 8
survivor count (dose: 40.0 mg/kg/injection, schedule: Q01DX001 (ip), vehicle: saline): 3 of 10
